Measurements: paper PMC8063935 (Pharmaceutics, 2021)
HELM strings list residues between dots; [ac] is acetyl, [am] amide, other brackets name non-standard units.

Assay: peptide made by a vendor
Conditions: whole synthesis

Substance	purity (crude or final not stated)
PEPTIDE1{R.R.R.W.W.W.W.V.[am]}$$$$V2.0	95.79%
PEPTIDE1{W.W.W.L.R.R.R.W.[am]}$$$$V2.0	95.33%
RKIWWWWL-NH2	95.49%
WWWLRKIW-NH2	96.57%
